This is an account of results in PubChem BioAssay AID1487 (National Center for Advancing Translational Sciences (NCATS), 2009).

This assay can be described thus: qHTS Assay for Modulators of Lamin A Splicing. The note with it: HeLa LMNA splicing GFP/RFP minigene ratio, 48 h. The method in brief: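 S3 HeLa cells stably expressing lamin A-EGFP splicing minigene plus DsRed2, 600 cells/well, 48 h compound exposure at 37C. Laser-scanning cytometry; analysed as GFP (500-530 nm)/RFP (575-640 nm) total intensity ratio; 0.5% DMSO vehicle.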
(Quantitative high-throughput screening tests each substance at several concentrations.)

Where [1] appears, read: measured here: RFP viability control channel.
[2] abbreviates: measured here: GFP splicing reporter channel.

Values joined by “and” are separate entries in the source; they are usually repeats but may differ in a detail not shown here. Equal entries are not always repeated. This is one part of the list. Further columns of the screen follow, without active or inactive calls. The list favours compounds with an active or inconclusive main result. The note in brackets gives the kind of curve behind each potency; many fits are weak.

With `COc1ccccc1NC(=O)N1CCC(c2nc3cc(C)c(C)cc3[nH]2)CC1`, under setting [1], the AC50 (in general, the concentration giving half of the maximal activity seen) is 1.78 µM [rising, full curve].

For `O=S(=O)(NCc1ccncc1)c1ccccc1`, the AC50 was 7.94 µM [rising, partial curve, poor fit] under setting [2] and 8.91 µM [rising, partial curve] under setting [1].

Take `COc1cc(S(=O)(=O)NCc2ccncc2)c(OC)cc1Cl`: under setting [1], the AC50 is 11.2 µM [rising, partial curve, poor fit].

For the compound `Cc1ccc(-c2csc(NC(=O)c3cnccn3)n2)cc1C`, the AC50 under setting [2] was 5.62 µM [falling, single point].

In the case of `O=C(O)c1cc(-c2ccc(C(F)(F)F)cc2)nc2n[nH]c(-c3ccccc3)c12`, under setting [2], the AC50 was 2 µM [rising, partial curve, poor fit].

`CCN1C(=O)N[C@@H](c2ccccc2)C1=O`: the AC50 under setting [1] is 0.178 µM [falling, partial curve, poor fit].

Regarding `COc1ccc(C)cc1-n1c(SCC(=O)Nc2cc(C)on2)nc2sc(C)c(C)c2c1=O`, under setting [1], the AC50 was 0.0631 µM [rising, full curve, poor fit].

As to `COc1ccccc1C(=O)Nc1nnc(S(=O)(=O)N(C)c2ccc(Cl)cc2)s1`, under setting [1], the AC50 is 0.00891 µM [rising, full curve, poor fit].

In the case of `O=c1cnc2cncnc2n1Cc1ccccc1Cl`, the concentration at half-maximal activity (AC50) is 4.47 µM [falling, full curve] under setting [2] and 3.98 µM [falling, full curve] under setting [1].

With `CC(COc1ccc(/C=C/c2ccccc2)cc1)[N+](C)(C)C` (stereo not drawn), the concentration at half-maximal activity (AC50) under setting [2] was 0.000794 µM [falling, full curve, poor fit] and the concentration at half-maximal activity (AC50) under setting [1] is 31.6 µM [falling, single point].

`CCN1C(=O)/C(=C/c2ccc(C)o2)N(C)C1=S`: the concentration at half-maximal activity (AC50) under setting [1] was 14.1 µM [rising, single point].

Regarding `NC(=O)CN(c1ccc(Cl)cc1)S(=O)(=O)c1ccccc1`, under setting [1], the AC50 was 1.26 µM [falling, full curve, poor fit].

As to `CCc1ccc(-c2csc(NC(=O)c3cccnc3)n2)cc1`, the concentration at half-maximal activity (AC50) by setting is: under setting [2], 5.62 µM [rising, single point]; under setting [1], 3.98 µM [rising, full curve].

As for `Cc1ccc(C(=O)NCCn2ccc3ccccc32)cc1[N+](=O)[O-]`, the AC50 under setting [1] is 0.00501 µM [falling, full curve, poor fit].

As for `Cc1onc(-c2ccccc2Cl)c1C(=O)Nc1ccccc1`, the AC50 under setting [1] is 35.5 µM [rising, single point].

For the compound `Cc1nn2c(=O)cc(COC(=O)CNC(=O)c3ccc(F)cc3)nc2s1`, the concentration at half-maximal activity (AC50) under setting [1] was 1.41 µM [falling, partial curve].

For `O=C(Nc1ccn(Cc2ccccc2)n1)c1cccc(Cn2cc([N+](=O)[O-])cn2)c1`, the AC50 under setting [1] was 31.6 µM [rising, single point].

As for `CCOC(=O)N1CCC(NC(=O)C2CCCN(S(=O)(=O)c3cccc4nsnc34)C2)CC1` (stereo not drawn), under setting [2], the half-maximal activity concentration (AC50) is 0.112 µM [rising, partial curve, poor fit].

For the compound `Cc1ccc(OCC(O)Cn2c(=N)n(CCN3CCCCC3)c3ccccc32)cc1` (stereo not drawn), the concentration at half-maximal activity (AC50) under setting [1] was 31.6 µM [rising, single point].

Take `CC1(C)CC(=O)C2=C(C1)Oc1ncn(Cc3ccco3)c(=N)c1C2c1ccccc1` (stereo not drawn): the AC50 under setting [1] was 15.8 µM [rising, partial curve].

For the compound `COc1ccccc1/C=C/C=N/NC(=O)CN1CCN(S(=O)(=O)c2ccc(C)cc2)CC1`, under setting [1], the concentration at half-maximal activity (AC50) is 12.6 µM [rising, single point].

Consider `N=c1n(CCN2CCCCC2)c2ccccc2n1CC(O)c1cccc(Br)c1` (stereo not drawn), for which the concentration at half-maximal activity (AC50) under setting [1] is 31.6 µM [rising, single point].

On to `CCOC(=O)c1cnc2ccc(OCC)cc2c1N1CCN(c2ccccc2OC)CC1`, for which the AC50 is 35.5 µM [falling, single point] under setting [2] and 31.6 µM [falling, single point] under setting [1].

For the compound `COC(=O)c1ccc(COc2cc(O)c3c(c2)OC(C)(C)CC3=O)cc1`, the half-maximal activity concentration (AC50) under setting [1] was 0.398 µM [falling, full curve, poor fit].

On to `CN(C)CC/C=C1\c2ccccc2COc2ccc(CC(=O)O)cc21`, for which the concentration at half-maximal activity (AC50) under setting [2] was 0.00251 µM [falling, full curve, poor fit].

As to `S=C(NCc1ccc(Cl)cc1)NN1CCOCC1`, the half-maximal activity concentration (AC50) by setting is: under setting [2], 0.00501 µM [falling, full curve, poor fit]; under setting [1], 5.62 µM [falling, single point].

Turning to `c1ccc(C2CN3CCSC3=N2)cc1` (stereo not drawn), the AC50 reads like this: under setting [2], 35.5 µM [falling, single point] and 28.2 nM [falling, full curve, poor fit]; under setting [1], 2.51 µM [falling, full curve].

As for `COc1ccc(/C=N/Nc2nnc(Cc3ccc(OC)c(OC)c3)c(=O)[nH]2)cc1`, under setting [1], the AC50 is 22.4 µM [rising, partial curve, poor fit].

As to `Cc1c(Cl)cccc1NC(=S)N1CCc2ccccc2C1`, the AC50 is, setting by setting: under setting [2], 0.00447 µM [falling, full curve, poor fit]; under setting [1], 0.00447 µM [falling, full curve, poor fit].

Regarding `O=C(CCCCn1c(=O)[nH]c2ccsc2c1=O)NCCc1ccccc1`, under setting [2], the AC50 is 0.002 µM [rising, full curve, poor fit].

Regarding `O=C(CSC1=Nc2ccccc2C2CC=NN12)Nc1ccc2c(c1)OCO2` (stereo not drawn), the half-maximal activity concentration (AC50) was 0.00891 µM [rising, full curve] under setting [2] and 0.0112 µM [rising, full curve] under setting [1].

Take `CN(C)S(=O)(=O)c1cccc(C(=O)Nc2cc(Cl)ccc2O)c1`: the AC50 reads like this: under setting [2], 12.6 µM [rising, partial curve]; under setting [1], 22.4 µM [rising, partial curve].

`Cc1cccc(OCc2n[nH]c(=S)n2C2CCCCC2)c1`: the half-maximal activity concentration (AC50) under setting [1] is 11.2 µM [rising, partial curve].

In the case of `COC(=O)c1cc(O)c(O)c(O)c1`, the AC50 runs as follows: under setting [2], 35.5 µM [falling, single point]; under setting [1], 25.1 µM [falling, single point].

In the case of `COc1ccc(-c2nnn(Cc3nc(N)nc(N4CCCCC4)n3)n2)cc1`, under setting [1], the AC50 was 14.1 µM [rising, single point].

Turning to `CC(C)(C)SCCNC(=O)Nc1ccccc1`, the concentration at half-maximal activity (AC50) under setting [2] is 10 µM [rising, partial curve, poor fit].

Take `Cc1ccc(CNS(=O)(=O)c2cc3[nH]c(=O)c(=O)[nH]c3cc2C)cc1`: the AC50 under setting [1] was 4.47 µM [falling, single point].

As for `Cc1nc(CNS(=O)(=O)c2ccc3c(c2)OCCO3)cs1`, under setting [1], the half-maximal activity concentration (AC50) is 12.6 µM [rising, partial curve].

On to `CC(C)CN1C(=O)/C(=C(/C#N)C(=O)NC2CCCCC2)c2ccccc21`, for which, under setting [1], the half-maximal activity concentration (AC50) is 0.891 µM [rising, partial curve].

As to `O=C(NCc1ccco1)/C(=C/c1cccc(C(F)(F)F)c1)c1nc2ccccc2[nH]1`, the concentration at half-maximal activity (AC50) under setting [2] was 0.0112 µM [falling, full curve, poor fit].

In the case of `O=C1C2CCCCC2C(=O)N1c1ccc(NC2CCCCC2)c([N+](=O)[O-])c1` (stereo not drawn), under setting [1], the AC50 was 0.2 µM [rising, full curve].

As for `N/C(=N\N=C\c1ccc2c(c1)OCO2)c1nonc1N`, the AC50 under setting [2] is 7.08 µM [falling, full curve, poor fit] and the AC50 under setting [1] is 7.08 µM [falling, partial curve, poor fit].

As for `CC(=O)NC(NC(=S)N1CCCCCC1)C(Cl)(Cl)Cl` (stereo not drawn), the AC50 under setting [2] was 8.91 µM [rising, partial curve, poor fit].

With `COc1cccc(CC2(CO)CCN(Cc3ccc(NC(C)=O)cc3)CC2)c1`, the AC50 under setting [2] was 0.00316 µM [rising, full curve].

With `Cn1c(=O)cc(OCCCC(=O)NCCCN2CCN(Cc3ccccc3)CC2)c2ccccc21`, the concentration at half-maximal activity (AC50) under setting [2] was 0.0112 µM [rising, full curve, poor fit].

Consider `Cc1ccc(C(=O)Nc2ccc3nc(SCC(=O)N4CCCc5ccccc54)sc3c2)cc1`, for which the AC50 reads like this: under setting [2], 0.447 µM [falling, full curve]; under setting [1], 0.158 µM [falling, full curve, poor fit].

With `O=C1N/C(=N\N=C\c2ccco2)SC1Cc1ccc(F)cc1` (stereo not drawn), the concentration at half-maximal activity (AC50) under setting [1] was 3.98 µM [falling, single point].

Regarding `COc1ccc(CCNC(=O)c2ccc(CN3CCC(Cc4ccccc4)CC3)cc2)cc1OC`, the AC50 under setting [2] was 17.8 µM [rising, single point] and the AC50 under setting [1] is 35.5 µM [rising, single point].

With `COc1ccc(-c2noc(CCC(=O)N3CCN(c4cc(C)ccc4C)CC3)n2)cc1`, the AC50 under setting [1] was 35.5 µM [rising, single point].

Take `COc1ccc(N2CCN(CCCNC(=O)CN3CCN(Cc4ccccc4C)C3=O)CC2)cc1`: the AC50 under setting [1] is 35.5 µM [rising, single point].

`O=C(Nc1cccc(-c2nnn(CC(=O)N3CCc4ccccc4C3)n2)c1)C1CCC1`: the AC50 under setting [1] is 11.2 µM [rising, single point].

As to `COc1ccc(-c2ccc(NS(=O)(=O)c3ccc(OC)c(OC)c3)cc2)nn1`, under setting [2], the AC50 was 35.5 µM [falling, partial curve, poor fit].

On to `Cc1scc2c1N(C(=O)CN1CCN(C)CC1)c1ccccc1NC2=O`, for which the half-maximal activity concentration (AC50) by setting is: under setting [2], 17.8 µM [falling, single point]; under setting [1], 14.1 µM [falling, single point].

For the compound `CCOc1ccc(N(C)S(=O)(=O)c2ccc3[nH]cc(C(=O)NCCOC)c(=O)c3c2)cc1`, the AC50 under setting [2] is 0.02 µM [rising, full curve, poor fit] and the concentration at half-maximal activity (AC50) under setting [1] is 11.2 µM [rising, partial curve, poor fit].

Take `COc1cccc(NS(=O)(=O)c2ccc(S(=O)(=O)N3CCOCC3)cc2)c1`: under setting [1], the concentration at half-maximal activity (AC50) is 0.00891 µM [rising, full curve, poor fit].

Regarding `COc1cccc(N2CCN(c3ncnc4c3cnn4-c3ccc(C)cc3C)CC2)c1`, under setting [1], the half-maximal activity concentration (AC50) is 3.55 µM [rising, partial curve].

As for `Cc1csc(NC(=O)c2cc(-c3ccccc3)nc3ccccc23)n1`, the AC50 under setting [1] was 22.4 µM [rising, single point].
